From patent US20250129167A1
Results are given in words; binding and its absence hold for the method and conditions named. Some entries that bind do so weakly or less than the wild type.

Experiments:
Cyno PD-L1-Fc (cyno) = Cyno PD-L1-Fc (cyno) (UniProt G7PSE7); experiment: column 'Species cross-reactivity'
Cyno PD-L2-Fc (cyno) = experiment: column 'Species cross-reactivity'

binding (Cyno PD-L1-Fc (cyno)) | binding (Cyno PD-L2-Fc (cyno)) | Binder
binds | – | ADI-20225 (antibody, V domains shown) VH: QVQLVQSGAEVKKPGASVKVSCKASGGTFRSYAIQWVRQAPGQGLEWMGWIIPGFGTANYAQKFQGRVTITADESTSTAYMELSSLRSEDTAVYYCARELSHGGLSYWGQGTLVTVSS VL: DIQMTQSPSSVSASVGDRVTITCRASQGISSWLAWYQQKPGKAPKLLIYAASSLQSGVPSRFSGSGSGTDFTLTISSLQPEDFATYYCQQANSFPITFGGGTKVEIK
– | binds | ADI-20236 (antibody, V domains shown) VH: QVQLVQSGAEVKKPGSSVKVSCKASGGTFSSHAISWVRQAPGQGLEWMGGIIPIFGWALYAQKFQGRVTITADESTSTAYMELSSLRSEDTAVYYCARPGDHRASHFDYWGQGTLVTVSS VL: DIQMTQSPSSVSASVGDRVTITCRASQGISSWLAWYQQKPGKAPKLLIYAASSLQSGVPSRFSGSGSGTDFTLTISSLQPEDFATYYCQQANSFPITFGGGTKVEIK
